Results reported in article PMC9858708, “Genetic and Molecular Interactions between H^ΔCT, a Novel Allele of the Notch Antagonist Hairless, and the Histone Chaperone Asf1 in Drosophila melanogaster” (Genes, 2023).
Results are given in words; binding and its absence hold for the method and conditions named. For some of these results: Binding can be weak; no strength is given.

Assays:
Assay in all cases: two-hybrid; H constructs as bait in pEG202, Asf1 or Su(H) as prey in pJG4-5; lacZ reporter from pSH18-34, blue coloration of yeast colonies; overnight incubation for Su(H)-H, 48 h for Asf1-H
[1] = biological target: Hairless NTCT^ΔNT, two-hybrid bait (pEG NTCT^ΔNT) (Drosophila melanogaster)
[2] = biological target: Hairless CT domain, two-hybrid bait (pEG CT) (Drosophila melanogaster)
[3] = biological target: Hairless NTCT domain, two-hybrid bait (pEG NTCT) (Drosophila melanogaster)
[4] = biological target: Hairless NTCT^ΔCT, two-hybrid bait (pEG NTCT^ΔCT) (Drosophila melanogaster)

binding [1]: binds
binding [2]: binds weakly
binding [3]: binds weakly
binding [4]: no binding
B1: Asf1, full-length, two-hybrid prey (pJG Asf1) (protein, UniProt Q9V464 1-218)
chain: MAKVHITNVVVLDNPSSFFNPFQFELTFECIEELKEDLEWKMIYVGSAESEEHDQVLDTIYVGPVPEGRHIFVFQADPPDVSKIPEPDAVGVTIVLLTCSYRGQEFVRVGYYVNNDYADPEMRENPPTKPLFEKLTRNILASKPRVTRFKINWDYGHINGNGNGVENGHQDEMATDGPSTSEAASAVIHPEDDNSLAMPMENGIKALNENSNSLAMEC
